Measured values as given in PubChem BioAssay AID1259354 (Paczesny and Yang Labs, IUPUI and University of Michigan, 2018).
Among all 78,000 compounds or so, about 1,800 (2.3%) were called active. Inconclusive results, whose numbers are uncertain, are shown with a selection of clear calls. No stated cut-off is given here; in the data, active means inhibition above about 30%; inconclusive means mostly about 10% to 28%; inactive means weaker than that.

Sequences of proteins named here, by UniProt entry; tags and fusion partners are left off. A change or cut given only in a name is not applied to a line headed by its entry.
UniProt Q01638: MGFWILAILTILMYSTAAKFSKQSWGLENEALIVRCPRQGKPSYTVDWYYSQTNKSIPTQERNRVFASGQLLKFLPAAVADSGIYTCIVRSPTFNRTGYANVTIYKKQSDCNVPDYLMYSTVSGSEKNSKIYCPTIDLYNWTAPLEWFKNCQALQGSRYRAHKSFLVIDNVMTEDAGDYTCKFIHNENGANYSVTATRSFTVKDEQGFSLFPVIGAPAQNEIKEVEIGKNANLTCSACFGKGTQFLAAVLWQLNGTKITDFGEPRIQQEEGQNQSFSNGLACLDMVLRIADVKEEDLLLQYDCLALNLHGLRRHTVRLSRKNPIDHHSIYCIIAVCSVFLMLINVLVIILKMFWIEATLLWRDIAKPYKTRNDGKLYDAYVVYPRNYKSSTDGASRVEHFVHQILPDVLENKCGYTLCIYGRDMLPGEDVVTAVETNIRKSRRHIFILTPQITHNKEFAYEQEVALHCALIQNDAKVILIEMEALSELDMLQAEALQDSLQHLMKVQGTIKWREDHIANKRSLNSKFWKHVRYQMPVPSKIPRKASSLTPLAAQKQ

Biological target: Interleukin-1 receptor-like 1 (Homo sapiens) (UniProt Q01638)
Assay: inhibitors of human ST2 (IL1RL1) binding to IL-33, primary screen, biochemical, AlphaLISA (AID 1259354)
Details: AlphaLISA ST2-Fc/biotin-IL-33 interaction, 1 h; at 17 µM, hits give high values

Row | SMILES | inhibition
1 | N#Cc1cccc(-c2ccc3n(c2=O)C[C@H]2C[C@@H]3CN(C(=O)Nc3ccccc3)C2)c1 | inactive
2 | O=C(NCc1ccco1)[C@H]1CN2CC[C@H]1C[C@@H]2Cn1cc(CCO)nn1 | inconclusive: 10%
3 | CC(C)NC(=O)[C@H]1CN2CCC1C[C@@H]2Cn1cc(C2(O)CCCCC2)nn1 (stereo partly drawn) | inconclusive: 13%
4 | CCc1nn2c(=O)cc(N3CCNCC3)nc2s1 | inconclusive: 16%
5 | COc1ccc(C(=O)N2CCCC2=O)cc1 | inconclusive: 14%
6 | Cc1[nH]c2ccc(O)cc2c1CCN | inconclusive: 12%
7 | C#CCN(C)C[C@H]1CN2CC[C@H]1C[C@@H]2CNC(=O)Nc1ccsc1 | inactive
8 | O=c1c2ccccc2nc(/C=C/c2ccc(O)cc2)n1-c1ccccc1[N+](=O)[O-] | inconclusive: 24%
9 | CCSc1ncc(CN2C[C@H]3CC=CC[C@H]3C2)cn1 | inactive
10 | COc1cc(CN(C)CCc2ccccc2)c([N+](=O)[O-])cc1OC | inconclusive: 16%
11 | CC(=O)N1C[C@@H]2C[C@H](C1)c1ccc(NC(=O)c3ccc(F)cc3)c(=O)n1C2 | inconclusive: 12%
12 | CC#CCN1CC=C(c2cnn(CCCC)c2)CC1 | inconclusive: 15%
13 | CCN1C(=O)NC(=O)/C(=C\c2cn(CC(=O)N3CCCCC3)c3ccccc23)C1=O | inconclusive: 23%
14 | Cc1ccc(C(=O)NC[C@H]2C[C@@H]3CCN2C[C@@H]3c2cc(-c3ccco3)nc(C)n2)cc1 | inconclusive: 26%
15 | O=C(O)CCC(=O)N1C[C@@H]2C[C@H](C1)c1c(-c3ccc(Cl)cc3)ccc(=O)n1C2 | inconclusive: 13%
16 | O=C(NC[C@H]1C[C@@H]2CCN1C[C@@H]2CN1CCN(c2ccccc2)CC1)Nc1cccc(F)c1 | inconclusive: 13%
17 | O=C(Nc1ccccc1)N1C[C@@H]2C[C@H](C1)c1ccc(-c3ccc(Cl)cc3)c(=O)n1C2 | inconclusive: 17%
18 | O=C(Nc1ccccc1)[C@H]1CN2CCC1C[C@@H]2Cn1cc(CO)nn1 (stereo partly drawn) | inconclusive: 15%
19 | CC(C)NC(=O)N1CC[C@@H](CC(=O)O)[C@@H](CCN2C[C@@H]3C[C@H](C2)c2cccc(=O)n2C3)C1 | inconclusive: 19%
20 | O=C(Nc1cccc(F)c1)Nc1ccc2n(c1=O)C[C@H]1C[C@@H]2CN(C2CCOCC2)C1 | inactive
21 | CC(C)Oc1cccnc1N(C)C1CCN(Cc2ccc(I)cc2)CC1 | inconclusive: 12%
22 | COc1ccccc1N1CCN(C[C@H]2CN3CC[C@H]2C[C@@H]3CNS(=O)(=O)c2ccc(C)cc2)CC1 | inconclusive: 15%
23 | O=C1CC[C@@]2(O)C3Cc4ccc(O)c5c4C2(CCN3CC2CC2)[C@H]1O5 (stereo partly drawn) | inconclusive: 15%
24 | Cc1ccc(-n2c(/C=C/c3cccc(O)c3)nc3ccccc3c2=O)cc1 | inconclusive: 20%
25 | Cc1ccc(C)c(Cn2cccc(C(=O)Nc3nc(C)cs3)c2=O)c1 | inconclusive: 14%
26 | C=C[C@H]1CN2CC[C@H]1C[C@@H]2CNC(=O)c1ccc(F)c(Cl)c1 | inconclusive: 17%
27 | O=S(=O)(NC[C@H]1C[C@@H]2CCN1C[C@@H]2CN1CCC(Cc2ccccc2)CC1)c1ccc(Cl)cc1 | inactive

Random excerpt: 4 entries already listed.
Row | SMILES | inhibition
6 | Cc1[nH]c2ccc(O)cc2c1CCN | inconclusive: 12%
27 | O=S(=O)(NC[C@H]1C[C@@H]2CCN1C[C@@H]2CN1CCC(Cc2ccccc2)CC1)c1ccc(Cl)cc1 | inactive
19 | CC(C)NC(=O)N1CC[C@@H](CC(=O)O)[C@@H](CCN2C[C@@H]3C[C@H](C2)c2cccc(=O)n2C3)C1 | inconclusive: 19%
1 | N#Cc1cccc(-c2ccc3n(c2=O)C[C@H]2C[C@@H]3CN(C(=O)Nc3ccccc3)C2)c1 | inactive

Further structures:

Row | SMILES | inhibition
28 | C=CS(=O)[C@H]1C[C@@]2(Cl)C(Cl)=C(Cl)[C@@]1(Cl)C2(Cl)Cl (stereo partly drawn) | inactive
29 | O=c1cccc2n1CC1CC2CN(S(=O)(=O)c2cccc3cccnc23)C1 (stereo not drawn) | inconclusive: 12%
30 | CCC(CC)c1cc([C@H]2CN3CC[C@H]2C[C@@H]3CNS(=O)(=O)c2cccs2)nc(-c2ccncc2)n1 | inconclusive: 13%
31 | Cc1ncc(CNC(=O)N(CCCl)N=O)c(N)n1 | inconclusive: 11%
32 | O=C(NCc1ccc2c(c1)OCO2)[C@H]1CN2CCC1C[C@@H]2Cn1cc(C2(O)CCCCC2)nn1 (stereo partly drawn) | inconclusive: 14%
33 | COc1ccc2cc(C(=O)C3CCCN(CCC(N)=O)C3)ccc2c1 (stereo not drawn) | inconclusive: 16%
34 | CC[C@H]1CN2CC[C@H]1C[C@@H]2COC(=O)Nc1ccc(Oc2ccccc2)cc1 | inactive
35 | Cc1ccccc1CN1CCN(c2ccc(F)cc2)CC1 | inconclusive: 26%
36 | COc1ccc(-c2cc([C@H]3CN4CC[C@H]3C[C@@H]4CNS(=O)(=O)c3ccc(NC(C)=O)cc3)n(C)n2)cc1OC | inconclusive: 14%
37 | O=c1c2cc(F)ccc2ncn1Cc1cn2ccccc2n1 | inconclusive: 24%
38 | COCCC(=O)N1C[C@@H]2C[C@H](C1)c1ccc(NC(=O)c3ccc(C#N)cc3)c(=O)n1C2 | active: 35%
39 | CNc1nc(-c2cccc3c2CCNC3)nc2c1CCC2 | inconclusive: 27%
40 | CC1CCN(C[C@H]2CN3CC[C@H]2C[C@@H]3CNC(=O)c2ccc3c(c2)OCO3)CC1 | inconclusive: 22%
41 | O=C([C@H]1CN2CCC1C[C@@H]2Cn1cc(-c2ccccn2)nn1)N1CCOCC1 (stereo partly drawn) | inconclusive: 21%
42 | COc1ccccc1NC(=O)N1C[C@@H]2C[C@H](C1)c1c(-c3ccc(Cl)cc3)ccc(=O)n1C2 | inconclusive: 22%
43 | Cn1nc(-c2ccccc2)cc1[C@H]1CN2CC[C@H]1C[C@@H]2CNC(=S)Nc1cccc(C#N)c1 | inconclusive: 16%
44 | O=c1c(-c2cccc(C(F)(F)F)c2)ccc2n1C[C@H]1C[C@@H]2CN(Cc2cccs2)C1 | inactive
45 | COc1cc(OC)c(CN2CCN(C)CC2)cc1Br | inactive
46 | COc1ccc2[nH]cc(CCN)c2c1 | inconclusive: 13%
47 | Cc1ccnc(CC(C)N(C)Cc2ccc3c(C)cc(=O)oc3c2)c1 (stereo not drawn) | inconclusive: 14%
48 | CCCS(=O)(=O)NC[C@H]1C[C@@H]2CCN1C[C@@H]2c1cc(C2CCCCC2)nn1C | inconclusive: 11%
49 | NS(=O)(=O)c1ccc(NC(=O)c2cccn(Cc3ccccc3Cl)c2=O)cc1 | inconclusive: 26%
50 | N#Cc1cccc(-c2ccc(=O)n3c2[C@@H]2C[C@@H](CN(C(=O)C4CCCCC4)C2)C3)c1 | inactive
51 | CCNC(=S)NC[C@H]1C[C@@H]2CCN1C[C@@H]2CC | inactive
52 | CCN(CC)C(=O)N[C@@H]1C[C@@H]2c3cccc4[nH]cc(c34)C[C@H]2N(C)C1 | inconclusive: 16%
53 | CC1N=C(c2ccccc2)c2ccccc2N(CC(=O)NCC2CCCO2)C1=O (stereo not drawn) | inactive
